Reference: PubChem BioAssay AID504861 (Broad Institute, 2011)
Out of some 1,200 compounds screened, about 290 (24%) were called active. Inconclusive results (about 3%) are left out.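 The calls were made as follows: active = compounds lowering cell viability signal with fitted half-maximal concentration at most ten times their highest tested concentration; inconclusive = flat fit with 30 to 70% signal loss, or poor fit; inactive = the rest.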 The entries are a selection whose mix differs from that of the whole data set. Measured potencies and affinities stand elsewhere.

assay: HEK293T cell viability reduction, dose response, cytotoxicity control for LMP1 NF-kB inhibitor project, CellTiter-Glo luminescence, cherry-picks (AID 504861); settings: CellTiter-Glo ATP luminescence, 48 h; at 26 µM (top of the series)

SMILES | activity change, negative = cytotoxicity
Cc1ccc2c(c1)N(CC(=O)N1CCCC1)C(=O)c1cccnc1O2 | inactive: 7.59%
CCOc1ccc(NC(=O)Cn2cc(C(=O)CC)c3ccccc32)cc1 | inactive: 9.94%
Cc1cc(C)cc(C(=O)NCCC(=O)NCc2cc(=O)n(C)c(=O)n2C)c1 | inactive: 8.31%
COc1ccc(S(=O)(=O)NCC(c2cccnc2)N2CCN(c3ccc(F)cc3)CC2)cc1C (stereo unspecified) | inactive: -2.1%
Cc1cc2ccccc2n1CCNC(=O)COc1ccc2ccccc2c1 | inactive: -4.26%
COc1ccc(CCC(=O)Nc2ccc(C)c([N+](=O)[O-])c2)cc1 | inactive: -8.9%
COc1cc2cc(C(=O)N3CCN(c4ccccc4OC)CC3)[nH]c2cc1OC | inactive: 3.07%
COc1ccc(-c2csc3ncnc(NCCCO)c23)cc1 | inactive: -3.85%
Cc1nnc(SCC(=O)N2CCC(c3noc4ccc(F)cc34)CC2)s1 | inactive: -0.633%
O=C(CSc1nnc(-c2cccc(S(=O)(=O)N3CCOCC3)c2)n1C1CCCCCC1)NCc1ccccc1 | inactive: 4.37%
COc1ccc(N2C3=[N+](CC2(C)O)c2ccccc2CC3)cc1 (stereo unspecified) | inactive: -2.75%
CC[C@]1(C(=O)OC)[C@H]2C(=O)N(Cc3ccccc3)C(=O)[C@H]2[C@H]2CN=C(SCc3ccc(Cl)cc3)N21 | inactive: -11.5%
OCCN(CCO)CC(O)COCCC12CC3CC(CC(C3)C1)C2 (stereo unspecified) | inactive: 6.07%
COc1cccc(/C=N\NC(=O)c2ccc(C)nc2)c1 | inactive: 0.683%
Cc1ccc(S(=O)(=O)N2CCN(C(=O)CSc3nnnn3C)C2)cc1 | inactive: 10.2%
CCOC(=O)c1cc(-c2ccccc2)n(CC(=O)Nc2cccc(OC)c2)c1C | inactive: 2.45%
Cc1ccc(CCNC(=O)Cc2ccc(NC3=NC4CS(=O)(=O)CC4S3)cc2)cc1 (stereo unspecified) | inactive: 6.82%
CC1CCc2nc(N)c(C#N)c(-c3cccnc3)c2C1 (stereo unspecified) | inactive: -2.74%

SMILES | activity change, negative = cytotoxicity
O=C(NN1C(=O)C2C3C=CC(C4CC34)C2C1=O)c1cccc(Cl)c1 (stereo unspecified) | inactive: 9.14%
Cn1nc(-c2ccc(N3CCOCC3)c(NS(=O)(=O)c3ccccc3)c2)c2ccccc2c1=O | inactive: 5.2%
CC(C)OCCCNC(=O)C1CCC(CNS(=O)(=O)c2ccccc2)CC1 (stereo unspecified) | inactive: 0.66%
COc1ccc(N2C(=O)C(Cl)=C(NCc3ccccc3)C2=O)cc1 | inactive: 14.4%
O=C(/C=C/Nc1cccc(C(F)(F)F)c1)C(F)(F)F | inactive: -1.79%
C[C@@H](OC(=O)c1[nH]cnc1C(=O)N1CCc2ccccc2C1)c1ccccc1 | inactive: -0.366%
COc1ccc(-c2[nH]ncc2/C=N\NS(=O)(=O)c2ccc(Cl)cc2)cc1 | inactive: 2.52%
Nc1ccn(C2CCCO2)c(=O)n1 (stereo unspecified) | inactive: 6.87%
NC1=NC(=O)NC1(c1ccccc1)c1ccccc1 | inactive: 9.4%
CCN(Cc1ccncc1)C(=O)CCc1ccccc1 | inactive: 0.206%
CC(C)(C)c1nc2c(s1)CCc1onc(-c3ccc(Br)cc3)c1-2 | inactive: 8.91%
CNC(=S)N1N=C(c2cccs2)CC1c1ccc(F)cc1 (stereo unspecified) | inactive: -8.27%
O=C1NC(=O)/C(=C\c2ccc(OCc3cccc(C(=O)O)c3)c(Cl)c2)N1 | inactive: 0.955%
COc1ccccc1-n1c(-c2ccccc2)n[nH]c1=S | inactive: 12.9%
O=C(CN1C(=O)c2ccccc2S1(=O)=O)c1ccc(F)c(F)c1 | inactive: 6.66%
NC(=O)OCC(COC(N)=O)c1ccccc1 | inactive: 4.36%
CCCSc1ccc([C@@H]2[C@H]3C(=O)N(C)C(=O)[C@H]3[C@]3(C(=O)OC)CCCN23)cc1OC | inactive: 6.23%
N=c1c(-c2nc3ccccc3[nH]2)cc(C(=O)c2cccs2)nn1-c1ccccc1 | inactive: 3.84%

In another format: results already given.
SMILES,"activity change, negative = cytotoxicity"
O=C(CN1C(=O)c2ccccc2S1(=O)=O)c1ccc(F)c(F)c1,inactive: 6.66%
NC(=O)OCC(COC(N)=O)c1ccccc1,inactive: 4.36%
